# Source: PubChem BioAssay AID651640 (Broad Institute, 2012)
# Hit rate of the full screen: of about 350,000 compounds, about 6,000 (1.7%) were called active. The shares of active, inactive and inconclusive entries below differ from those in the screen. No stated cut-off is given here; in the data, active means CPE inhibition above about 20% (passing the limit was not always enough); inconclusive means no clear call, values can overlap the other calls; tested in BHK-21 cells.
# Test: protection of cells from dengue 2 killing – plate reader, single concentration, primary screen (AID 651640);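 further: 0% = median of neutral control wells and 100% = median of positive control wells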
# Conditions: DENV2-infected cells, cytopathic effect rescue, at 9.99 µM, active compounds read high
row,SMILES,CPE inhibition
1,COc1ccc(S(=O)(=O)NCCN2CCOCC2)c(C)c1C,inactive: -3.89%
2,COc1ccc(S(=O)(=O)N2CCN(C(=O)C3CC3)CC2)cc1Br,inconclusive: 59.5%
3,NC(=O)c1ccccc1NC(=O)CSc1nc2c(c(=O)[nH]1)CCCC2,inconclusive: 28.6%
4,O=C(Cc1cccs1)NC1(C(=O)NC2CCCC2)CCCCC1,inconclusive: 48.4%
5,CC(=O)c1cccc(NC(=O)CN(C)Cc2ccc(OC(F)F)cc2)c1,inconclusive: 23.5%
6,Cc1cc(C(=O)Nc2cccc3c2O[C@@H](CN(C)Cc2ccc(C(=O)O)cc2)[C@@H](C)CN([C@H](C)CO)C3=O)n(C)n1,active: 50.4%
7,C/C=C/c1cnc2c(c1)C(=O)N([C@@H](C)CO)C[C@@H](C)[C@H](CN(C)C(=O)c1cnccn1)O2,inactive: -1.7%
8,O=S(=O)(c1cccc(F)c1)N1CC[C@@H]2[C@H]1c1cc(-c3cccc(F)c3)ccc1N[C@@H]2CO,active: 51.6%
9,C/C=C/c1ccc2c(c1)O[C@@H](CN(C)C(=O)NC(C)C)[C@@H](C)CN([C@H](C)CO)S2(=O)=O,inactive: 6.35%
10,O=C(CCC(=O)Nc1ccccc1)NNS(=O)(=O)c1ccc(Cl)cc1,inactive: -8.88%
11,O=C(CN1C(=O)/C(=C/c2ccco2)SC1=S)Nc1ccc(C(=O)O)c(O)c1,inactive: 0.568%
12,Cc1cc(C(=O)Nc2cccc3c2O[C@@H](CN(C)C(=O)Nc2ccc4c(c2)OCO4)[C@@H](C)CN([C@H](C)CO)C3=O)n(C)n1,inactive: 3.06%
13,CC(C)NC(=O)Nc1cccc2c1O[C@@H](CN(C)C(=O)Nc1cccc3ccccc13)[C@@H](C)CN([C@@H](C)CO)C2=O,inconclusive: 32.7%
14,Cc1c(C(=O)NCc2cccc(C(F)(F)F)c2)sc(=O)n1Cc1ccc(C(=O)N(C)C)cc1,inactive: 3.61%
15,COc1ccc(C2C(C(=O)c3sc(C)nc3C)=C(O)C(=O)N2CCCn2ccnc2)cc1 (configuration not stated),inconclusive: 22.6%
16,CN(C)CCn1nnnc1SCC1=C(C(=O)O)N2C(=O)[C@@H](NC(=O)Cc3csc(N)n3)[C@H]2SC1,inactive: 12.8%
17,Cc1ccc(NC(=O)C/C(N)=N/OC(=O)Nc2cccc(C)c2)cc1,inconclusive: 28.9%
18,C[C@@H](O)C#Cc1ccc([C@H]2[C@H](CO)N3CCCCN(C(=O)c4ccc5c(c4)OCO5)C[C@@H]23)cc1,inconclusive: 23.3%
19,Cc1ccc(C(=O)N2CCCCCC2)cc1S(=O)(=O)Nc1ccccc1,inconclusive: 31%
20,COc1ccc(S(=O)(=O)N2C[C@H](O)COC[C@H]3O[C@H](CC(=O)NCCCN(C)C)CC[C@@H]32)cc1,active: 20.6%
21,CCCCCCCC(=O)Nc1cc(C(=O)NCc2ccc(C)cc2)ccc1N1CCC2(CC1)CC(c1ccccc1)=NO2,active: 27.3%
22,CCN1C(=O)[C@@H]2[C@@H](c3ccc(-c4ccc(Cl)c(Cl)c4)c(OC)c3)N3CCCC[C@@]3(C(=O)OC)[C@@H]2C1=O,inconclusive: 25.5%
23,COC(=O)[C@]1(Cc2ccccc2)N[C@H](c2ccc(-c3ccc4c(c3)OCO4)cc2)[C@@H]2C(=O)N(C)C(=O)[C@@H]21,inconclusive: 34.5%
24,COCCNc1nc2cc(-c3cccc(C(F)(F)F)c3)sc2c(=O)n1C,inactive: -4.7%

row,SMILES,CPE inhibition
1,CC(C)c1ccc(S(=O)(=O)N2CCC(C(=O)N3CCN(c4cccc(Cl)c4)CC3)CC2)cc1,inconclusive: 59%
2,Cc1ccc(/C=C/C(=O)c2ccc([N+](=O)[O-])o2)cc1,inconclusive: 33.6%
3,Cc1cc(CN2CCC(n3nccc3NC(=O)c3ccccc3Cl)CC2)cc(C)c1O,inconclusive: 22.6%
4,Cc1onc(-c2c(Cl)cccc2Cl)c1C(=O)N=C(N)N1CCOCC1,inconclusive: 21.3%
5,CC1(C(=O)NS(=O)(=O)c2cccc(C#N)c2)CCN1C(=O)CCC1CCCC1 (configuration not stated),inconclusive: 25.2%
6,O=C(C[C@H]1C[C@@H]2c3cc(NC(=O)C4CCC4)ccc3O[C@@H]2[C@H](CO)O1)NCc1ccccc1,active: 22.7%
7,S=C(NCc1ccc2c(c1)OCO2)NC1CC1,inconclusive: 45.4%
8,CC(C)C[C@H]1CNC(=S)N1CC1CCCN1C[C@H](Cc1ccccc1)N1C[C@H](Cc2ccc(O)cc2)N(CC2CCCCCC2)C1=S (some centres not stated),inactive: -4.01%
9,CCS(=O)(=O)Nc1ccc2c(c1)C(=O)N(C)[C@@H]1CC[C@@H](CC(=O)OC)O[C@@H]1CO2,inactive: 2.74%
10,CC(=O)NCC(=O)NC1CCCc2c1cnn2-c1ccc(C(C)(C)C)cc1 (configuration not stated),active: 30.7%
11,O=C1CC2(CCCC2)Oc2ccc(Cl)cc21,inconclusive: 57.5%
12,CCCNC(=O)N1CC2(C1)[C@@H](c1ccccc1)[C@H](CO)N2C(=O)C1CCCC1,inconclusive: 22.8%
13,O=C(COc1ccccc1)NCC(=O)N/N=C/c1ccc(Br)cc1,active: 70%
14,C[C@H]1CN([C@@H](C)CO)C(=O)c2c(c3ccccc3n2C)-c2ccccc2CO[C@H]1CN(C)S(=O)(=O)Cc1ccccc1,inactive: 2.19%
15,C[C@H](CO)N1C[C@H](C)[C@@H](CN(C)Cc2ccccc2)Oc2c(cccc2N(C)C)C1=O,inactive: 3.46%
16,CCOC(=O)Cc1csc(N/N=C/c2cccc([N+](=O)[O-])c2)n1,active: 29.2%
17,COCC#Cc1ccc2c(c1)O[C@@H](CN(C)C)[C@H](C)CN([C@H](C)CO)S2(=O)=O,inactive: -5.8%
18,COc1ccc(C(=O)NCCc2ccccn2)cc1S(=O)(=O)Nc1ccc(Br)cc1,inconclusive: 51.4%
19,C[C@@H]1CN([C@H](C)CO)C(=O)CCCn2nncc2CO[C@@H]1CN(C)C(=O)CCC(F)(F)F,inconclusive: 21%
20,CN(C)c1ccc2c(c1)[C@H]1C[C@@H](CC(=O)N3CCCCC3)O[C@@H](CO)[C@H]1O2,inactive: -2.78%
21,CC(C)NC(=O)N1[C@H](CO)[C@H]2c3ccccc3N(C(=O)Nc3ccc(Cl)cc3)C[C@H]21,inconclusive: 48.2%
22,C[C@H]1CN([C@@H](C)CO)C(=O)c2cc(NC(=O)Cn3cnnn3)ccc2O[C@H]1CN(C)S(C)(=O)=O,inconclusive: 53.1%
23,O=C(CSCc1ccc(Cl)cc1Cl)Nc1ccc(O)cc1C(=O)O,inconclusive: 32.9%
24,CCCNC(=O)N1C[C@@H](C)[C@@H](OC)CN(C)C(=O)c2cc(NC(=O)CCC)ccc2OC[C@H]1C,inconclusive: 41.4%

row,SMILES,CPE inhibition
1,O=C(c1cnccn1)N1CC(=O)N2[C@H](CO)[C@@H](c3ccc(C#CC4CCCC4)cc3)[C@H]2C1,inconclusive: 52.6%
2,O=C(CCc1ccccc1)Nc1ccccc1C(F)(F)F,inactive: 0.497%
3,CCCC#Cc1ccc2c(c1)O[C@@H](CN(C)Cc1cccnc1)[C@@H](C)CN([C@@H](C)CO)S2(=O)=O,inconclusive: 34.7%
4,Cc1ccccc1C(=O)NCCNC(=O)c1ccccn1,inconclusive: 37.6%
5,C[C@H](CO)N1C[C@H](C)[C@@H](CN(C)CC2CC2)Oc2cc(-c3ccc(F)cc3)ccc2S1(=O)=O,inactive: -5.15%
6,O=C(O)C[C@H]1C=C[C@@H](NC(=O)c2ccccc2F)[C@H](CO)O1,inconclusive: 40.4%
7,COc1ccc(S(=O)(=O)Nc2c(O)ccc3ccccc23)cc1OC,inconclusive: 38.4%
8,CO[C@H]1CN(C)C(=O)c2ccc(NC(=O)C3CCCC3)cc2OC[C@H](C)N(C)C[C@@H]1C,active: 52.1%
9,Cc1ccc(S(=O)(=O)N(C)C[C@@H]2Oc3c(NC(=O)Nc4ccc5c(c4)OCO5)cccc3C(=O)N([C@H](C)CO)C[C@@H]2C)cc1,inactive: 12.4%
10,COc1ccccc1C(=O)Nc1ccc2c(c1)C(=O)N(C)C[C@@H](OC)[C@@H](C)CN(CC1CC1)[C@@H](C)CO2,inconclusive: 29.5%
11,C[C@@H](O)C#Cc1ccc([C@@H]2[C@H]3CN(C(=O)c4ccc5c(c4)OCO5)CCCCN3[C@H]2CO)cc1,inactive: 2.09%
12,CN1CCN(c2ccc(CNC(=O)c3ccco3)cc2)CC1,inconclusive: 24.5%
13,C[C@H]1CN([C@@H](C)CO)C(=O)c2cc(NC(=O)Nc3ccc4c(c3)OCO4)ccc2O[C@@H]1CN(C)Cc1ccncc1,inconclusive: 24.9%
14,CCOC(=O)CC[C@H](NC(=O)Cn1cc(C)c(=O)[nH]c1=O)C(=O)OCC,inconclusive: 40.3%
15,CCN(CC(=O)NCc1ccc(F)cc1)C(=O)c1ccc(C(=O)c2ccccc2)cc1,inconclusive: 20.7%
16,CCCCNC(=O)c1nc(-c2ccc(C(F)(F)F)cc2)oc1-c1ccccc1,inconclusive: 23.8%
17,Clc1ccc(C(c2cccs2)N2CCNCC2)cc1 (configuration not stated),inconclusive: 27.8%
18,CCCNC(=O)N1CC2(C1)[C@H](c1ccccc1)[C@@H](CO)N2C(=O)c1ccncc1,inactive: -12.3%
19,CCN(C[C@H]1[C@@H](c2ccccc2)[C@H](CO)N1CC1CC1)C(=O)c1ccccn1,active: 24.8%
20,CCN(CC)C1=N/C(=C\c2ccc(OC)cc2)C(=O)N1c1ccccc1,inconclusive: 46.6%
21,C[C@@H]1CN([C@H](C)CO)C(=O)c2cc(NC(=O)NC3CCCCC3)ccc2O[C@@H](C)CCCCO[C@H]1CN(C)Cc1ccc(C(F)(F)F)cc1,inactive: 3.96%
22,COc1ccccc1NS(=O)(=O)c1cc(NC(=S)NCCN2CCOCC2)ccc1N1CCOCC1,inactive: 3.8%
23,Cc1noc(C)c1S(=O)(=O)N(C)C[C@H]1OCCCC[C@H](C)Oc2ccc(NS(=O)(=O)c3cccs3)cc2C(=O)N([C@H](C)CO)C[C@H]1C,inconclusive: 65.2%
24,CN1CCN(C(=O)C2CCC(CNS(=O)(=O)c3cccc4cccnc34)CC2)CC1 (configuration not stated),inconclusive: 34.9%

# Look-ups from the entries so far:
# Value for `Cc1ccc(S(=O)(=O)N(C)C[C@@H]2Oc3c(NC(=O)Nc4ccc5c(c4)OCO5)cccc3C(=O)N([C@H](C)CO)C[C@@H]2C)cc1` under CPE inhibition: inactive: 12.4%
# Value for `CCOC(=O)CC[C@H](NC(=O)Cn1cc(C)c(=O)[nH]c1=O)C(=O)OCC` under CPE inhibition: inconclusive: 40.3%
# Value for `CCCNC(=O)N1CC2(C1)[C@H](c1ccccc1)[C@@H](CO)N2C(=O)c1ccncc1` under CPE inhibition: inactive: -12.3%
# Value for `CCCC#Cc1ccc2c(c1)O[C@@H](CN(C)Cc1cccnc1)[C@@H](C)CN([C@@H](C)CO)S2(=O)=O` under CPE inhibition: inconclusive: 34.7%
# Value for `O=C(CCc1ccccc1)Nc1ccccc1C(F)(F)F` under CPE inhibition: inactive: 0.497%
# Value for `C[C@H](CO)N1C[C@H](C)[C@@H](CN(C)CC2CC2)Oc2cc(-c3ccc(F)cc3)ccc2S1(=O)=O` under CPE inhibition: inactive: -5.15%
